Data from PubChem BioAssay AID330 (DTP/NCI, 2004).
The list shows only some results of the screen, not a fair sample: it is rich in T/C values a quarter to a half above the control, in often repeated tests (any T/C) and in doses without a T/C. Further doses and runs are listed elsewhere. T/C: endpoint of the treated group in % of that of the vehicle group. Some doses have a count of surviving animals in place of a T/C: the source files T/C as zero there, which appears to mark a toxic dose or a test without result, not a measured value. Some doses without a T/C left all or most animals alive at the check, yet need not have been tolerated: survival well below the control is almost never listed, so the zero probably covers shortened survival too. Survivors were counted at the toxicity check, usually on the fifth day, unless a day is given; later deaths do not show. Schedule codes are those of the source, taken here to give the interval after Q, in days (D) or hours (H), and the number of doses after X. Some entries were tested several times; their values stand side by side, smallest first. Additions like (4×) say how often a value occurs here. For survival time, this PubChem deposit counts one and a half times the control or more as active, and values a quarter to a half above the control carry no call in these data; other NCI protocols may use other cut-offs. Some T/C values carry the count of animals alive at the toxicity check (mostly the fifth day); without a count, all were alive then.

Test system: P388 leukemia ip, CD2F1 mice, survival T/C
Experiment: NCI In Vivo Anticancer Drug Screen. Data for tumor model P388 Leukemia (intraperitoneal) in CD2F1 (CDF1) mice
Settings: T/C endpoint: median survival time, higher T/C = longer survival
[1] = dose: 50.0 mg/kg/injection, schedule: Q01DX009 (ip), vehicle: saline
[2] = dose: 200.0 mg/kg/injection, schedule: Q01DX009 (ip), vehicle: saline with Tween-80
[3] = dose: 100.0 mg/kg/injection, schedule: Q01DX009 (ip), vehicle: Klucel (hydroxypropylcellulose) (HPC)
[4] = dose: 200.0 mg/kg/injection, schedule: Q01DX009 (ip), vehicle: Klucel (hydroxypropylcellulose) (HPC)
[5] = dose: 200.0 mg/kg/injection, schedule: Q01DX005 (ip), vehicle: saline with Tween-80
[6] = dose: 240.0 mg/kg/injection, schedule: Q01DX005 (ip), vehicle: saline with Tween-80
[7] = dose: 50.0 mg/kg/injection, schedule: Q01DX005 (ip), vehicle: saline with Tween-80
[8] = dose: 100.0 mg/kg/injection, schedule: Q01DX005 (ip), vehicle: saline with Tween-80
[9] = dose: 2400.0 mg/kg/injection, schedule: Q01DX005 (ip), vehicle: saline

Compound: COC(CCC(C)C1OC23CC(OC(=O)CC(C(C)O)OC(=O)CC(O)(O2)C(C)CC3(C)C)C1C)c1cccc(O)c1 (configuration not stated)
- survivor count (dose: 12.5 micrograms/kg/injection, schedule: Q01DX009 (ip), vehicle: saline + Tween-80 + alcohol): 6 of 6
- T/C (dose: 12.5 micrograms/kg/injection, schedule: Q01DX009 (ip), vehicle: saline + alcohol): 130 % of control
- survivor count (dose: 25.0 micrograms/kg/injection, schedule: Q01DX009 (ip), vehicle: saline + Tween-80 + alcohol): 6 of 6
- T/C (dose: 25.0 micrograms/kg/injection, schedule: Q01DX009 (ip), vehicle: saline + alcohol): 141 % of control
- survivor count (dose: 50.0 micrograms/kg/injection, schedule: Q01DX009 (ip), vehicle: saline + Tween-80 + alcohol): 6 of 6
- survivor count (dose: 50.0 micrograms/kg/injection, schedule: Q01DX009 (ip), vehicle: saline + alcohol): 5 of 6
- survivor count (dose: 100.0 micrograms/kg/injection, schedule: Q01DX009 (ip), vehicle: saline + alcohol): 6 of 6

Compound: CCOC(=O)N(C)C(C)=O
- survivor count [1]: 6 of 6
- survivor count (dose: 100.0 mg/kg/injection, schedule: Q01DX009 (ip), vehicle: saline): 5 of 6
- survivor count [2]: 6 of 6

Compound: CCOC(=O)c1sc(N)nc1C
- T/C [2]: 131 % of control [5 of 6 alive]
- survivor count (dose: 400.0 mg/kg/injection, schedule: Q01DX009 (ip), vehicle: saline with Tween-80): 3 of 6

Compound: CC(=O)O[C@@H]1C[C@H]2C(C)(C)C(=O)C=C[C@]2(C)[C@H]2CC[C@]3(C)C(=CC(=O)O[C@H]3c3ccoc3)[C@@]21C
- survivor count (dose: 5.0 mg/kg/injection, schedule: Q01DX009 (ip), vehicle: Klucel (hydroxypropylcellulose) (HPC)): 6 of 6
- survivor count (dose: 20.0 mg/kg/injection, schedule: Q01DX009 (ip), vehicle: Klucel (hydroxypropylcellulose) (HPC)): 6 of 6
- survivor count (dose: 40.0 mg/kg/injection, schedule: Q01DX009 (ip), vehicle: Klucel (hydroxypropylcellulose) (HPC)): 6 of 6

Compound: CCCC[N+]1(C)CCC(OC(=O)C(O)(c2ccccc2)C2CCCC2)C1 (configuration not stated)
- survivor count [3]: 6 of 6
- survivor count [4]: 6 of 6

Compound: COc1cc(N=Nc2ccccc2)cc(/C=N\NC(=S)Nc2ccccc2)c1O
- survivor count [5]: 1 of 6

Compound: O=C(c1ccccc1)c1ccc2n[se]nc2c1
- survivor count (dose: 60.0 mg/kg/injection, schedule: Q01DX005 (ip), vehicle: saline with Tween-80): 3 of 6
- survivor count (dose: 120.0 mg/kg/injection, schedule: Q01DX005 (ip), vehicle: saline with Tween-80): 0 of 6
- survivor count [6]: 0 of 6

Compound: C[C@]12CC[C@H]3[C@@H](CC[C@H]4N(CCCl)CCC[C@]34C)[C@@H]1CC[C@@H]2O
- T/C (dose: 50.0 mg/kg/injection, schedule: Q01DX001 (ip), vehicle: saline): 135 % of control
- survivor count (dose: 100.0 mg/kg/injection, schedule: Q01DX001 (ip), vehicle: saline): 0 of 6

Compound: CC(=O)SC(C(=O)O)C(SC(C)=O)C(=O)O (configuration not stated)
- survivor count (dose: 400.0 mg/kg/injection, schedule: Q01DX009 (ip), vehicle: other): 3 of 6

Compound: S=C(NNc1nnc(-c2ccccc2)c(-c2ccccc2)n1)Nc1ccc(Br)cc1
- survivor count [7]: 6 of 6
- survivor count [8]: 6 of 6

Compound: O=[N+]([O-])c1cccc2c[n+](Cc3ccc(Br)cc3)ccc12
- survivor count [1]: 1 of 6

Compound: COc1ccc2c(c1)c(NCCCCCC#N)cc(C)[n+]2C
- survivor count [7]: 3 of 5
- survivor count [8]: 1 of 5
- survivor count [5]: 0 of 5

Compound: Cc1ccc(S(=O)(=O)c2cc3ccccc3oc2=O)cc1
- survivor count [6]: 6 of 6

Compound: C[C@H](N)C(=O)N[C@@H]1[C@H]2C(=C(O)C[C@@H](O)[C@@H]2O)C(=O)O[C@@H]1C
- T/C (dose: 150.0 mg/kg/injection, schedule: Q01DX005 (ip), vehicle: saline): 135 % of control
- T/C (dose: 300.0 mg/kg/injection, schedule: Q01DX005 (ip), vehicle: saline, evaluated on day 20): 137 % of control
- T/C (dose: 300.0 mg/kg/injection, schedule: Q01DX005 (ip), vehicle: saline, evaluated on day 30): 108, 126, 130 % of control
- T/C (dose: 300.0 mg/kg/injection, schedule: Q01DX005 (ip), vehicle: suspension in saline): 127 % of control
- T/C (dose: 600.0 mg/kg/injection, schedule: Q01DX005 (ip), vehicle: saline, evaluated on day 20): 153 % of control
- T/C (dose: 600.0 mg/kg/injection, schedule: Q01DX005 (ip), vehicle: saline, evaluated on day 30): 142, 151, 160 % of control
- T/C (dose: 1200.0 mg/kg/injection, schedule: Q01DX005 (ip), vehicle: saline, evaluated on day 20): 173 % of control
- T/C (dose: 1200.0 mg/kg/injection, schedule: Q01DX005 (ip), vehicle: saline, evaluated on day 30): 146, 165, 167 % of control
- survivor count (dose: 1200.0 mg/kg/injection, schedule: Q01DX005 (ip), vehicle: suspension in saline): 3 of 6
- T/C [9]: 195 % of control [5 of 6 alive]
- survivor count [9]: 2 of 6 (2×) and 3 of 6
- survivor count (dose: 2400.0 mg/kg/injection, schedule: Q01DX005 (ip), vehicle: suspension in saline): 1 of 6

Compound: COc1ccc(C(=O)N2C=CC(=Cc3ccccc3)C=C2)cc1
- survivor count (dose: 50.0 mg/kg/injection, schedule: Q01DX009 (ip), vehicle: Klucel (hydroxypropylcellulose) (HPC)): 2 of 6
- survivor count [3]: 2 of 6
- survivor count [4]: 1 of 6

Compound: CC1NCCc2c1[nH]c1ccccc21 (configuration not stated)
- survivor count (dose: 100.0 mg/kg/injection, schedule: Q01DX005 (ip), vehicle: Klucel (hydroxypropylcellulose) (HPC)): 2 of 6
- survivor count (dose: 200.0 mg/kg/injection, schedule: Q01DX005 (ip), vehicle: Klucel (hydroxypropylcellulose) (HPC)): 0 of 6

Compound: C=C(CN1CCCC1)C(=O)c1ccc(OC)cc1
- survivor count (dose: 7.5 mg/kg/injection, schedule: Q01DX005 (ip), vehicle: saline): 3 of 6
- survivor count (dose: 15.0 mg/kg/injection, schedule: Q01DX005 (ip), vehicle: saline): 1 of 6
- survivor count (dose: 30.0 mg/kg/injection, schedule: Q01DX005 (ip), vehicle: saline): 0 of 6
- survivor count (dose: 60.0 mg/kg/injection, schedule: Q01DX005 (ip), vehicle: saline): 0 of 6
- survivor count (dose: 120.0 mg/kg/injection, schedule: Q01DX005 (ip), vehicle: saline): 0 of 6
- survivor count (dose: 240.0 mg/kg/injection, schedule: Q01DX005 (ip), vehicle: saline): 0 of 6

Compound: O=C1C(CO)=CC(O)[C@@H]2O[C@H]12 (mixture of isomers)
- T/C (dose: 12.0 mg/kg/injection, schedule: Q01DX005 (ip), vehicle: saline with Tween-80): 140 % of control
- T/C (dose: 24.0 mg/kg/injection, schedule: Q01DX005 (ip), vehicle: saline with Tween-80): 140 % of control
- T/C (dose: 48.0 mg/kg/injection, schedule: Q01DX005 (ip), vehicle: saline with Tween-80): 129 and 135 % of control
- survivor count (dose: 96.0 mg/kg/injection, schedule: Q01DX005 (ip), vehicle: saline with Tween-80): 0 of 5 and 0 of 6
- survivor count (dose: 192.0 mg/kg/injection, schedule: Q01DX005 (ip), vehicle: saline with Tween-80): 0 of 6
- survivor count (dose: 384.0 mg/kg/injection, schedule: Q01DX005 (ip), vehicle: saline with Tween-80): 0 of 6

Compound: O=CNc1nc[nH]c1-c1noc(=O)[nH]1
- survivor count (dose: 200.0 mg/kg/injection, schedule: Q04DX002 (ip), vehicle: saline): 5 of 6
- survivor count (dose: 400.0 mg/kg/injection, schedule: Q04DX002 (ip), vehicle: saline): 0 of 6

Compound: C=C(c1ccccc1)C1(O)CCCCC1N(C)C (configuration not stated)
- survivor count (dose: 100.0 mg/kg/injection, schedule: Q04DX002 (ip), vehicle: saline with Tween-80): 0 of 6
- survivor count (dose: 200.0 mg/kg/injection, schedule: Q04DX002 (ip), vehicle: saline with Tween-80): 0 of 6
- survivor count (dose: 400.0 mg/kg/injection, schedule: Q04DX002 (ip), vehicle: saline with Tween-80): 0 of 6

Compound: CC(NC(=O)OC(C)(C)C)C(=O)NC(C)C(=O)OCc1ccccc1 (configuration not stated)
- survivor count [5]: 4 of 5

Compound: CCCNC(=S)NN1C2CSC1CS2
- survivor count (dose: 200.0 mg/kg/injection, schedule: Q01DX009 (ip), vehicle: saline): 6 of 6
